Results taken from publication doi:10.1101/2025.04.16.649118.
No constants are given. Whether binding was seen depends on the method and setting. Binding seen in cells or lysates may run through a third protein. A yes stands for co-enrichment or nearness to the bait. Other partners may have been found.

Chains of the proteins cited; added tags and fusions are not shown.
UniProt Q13283: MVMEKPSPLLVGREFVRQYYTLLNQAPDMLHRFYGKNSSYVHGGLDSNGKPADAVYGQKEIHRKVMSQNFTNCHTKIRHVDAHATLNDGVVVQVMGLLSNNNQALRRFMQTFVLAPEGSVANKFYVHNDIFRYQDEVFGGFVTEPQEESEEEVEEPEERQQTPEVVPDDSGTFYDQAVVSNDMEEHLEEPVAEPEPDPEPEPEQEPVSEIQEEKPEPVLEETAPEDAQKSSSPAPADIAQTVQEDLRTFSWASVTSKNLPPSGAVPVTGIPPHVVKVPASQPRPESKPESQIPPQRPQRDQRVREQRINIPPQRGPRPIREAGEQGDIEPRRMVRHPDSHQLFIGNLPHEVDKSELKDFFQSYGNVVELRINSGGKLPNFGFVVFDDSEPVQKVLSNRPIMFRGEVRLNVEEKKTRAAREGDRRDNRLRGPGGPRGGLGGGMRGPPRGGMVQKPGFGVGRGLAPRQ
UniProt P22314: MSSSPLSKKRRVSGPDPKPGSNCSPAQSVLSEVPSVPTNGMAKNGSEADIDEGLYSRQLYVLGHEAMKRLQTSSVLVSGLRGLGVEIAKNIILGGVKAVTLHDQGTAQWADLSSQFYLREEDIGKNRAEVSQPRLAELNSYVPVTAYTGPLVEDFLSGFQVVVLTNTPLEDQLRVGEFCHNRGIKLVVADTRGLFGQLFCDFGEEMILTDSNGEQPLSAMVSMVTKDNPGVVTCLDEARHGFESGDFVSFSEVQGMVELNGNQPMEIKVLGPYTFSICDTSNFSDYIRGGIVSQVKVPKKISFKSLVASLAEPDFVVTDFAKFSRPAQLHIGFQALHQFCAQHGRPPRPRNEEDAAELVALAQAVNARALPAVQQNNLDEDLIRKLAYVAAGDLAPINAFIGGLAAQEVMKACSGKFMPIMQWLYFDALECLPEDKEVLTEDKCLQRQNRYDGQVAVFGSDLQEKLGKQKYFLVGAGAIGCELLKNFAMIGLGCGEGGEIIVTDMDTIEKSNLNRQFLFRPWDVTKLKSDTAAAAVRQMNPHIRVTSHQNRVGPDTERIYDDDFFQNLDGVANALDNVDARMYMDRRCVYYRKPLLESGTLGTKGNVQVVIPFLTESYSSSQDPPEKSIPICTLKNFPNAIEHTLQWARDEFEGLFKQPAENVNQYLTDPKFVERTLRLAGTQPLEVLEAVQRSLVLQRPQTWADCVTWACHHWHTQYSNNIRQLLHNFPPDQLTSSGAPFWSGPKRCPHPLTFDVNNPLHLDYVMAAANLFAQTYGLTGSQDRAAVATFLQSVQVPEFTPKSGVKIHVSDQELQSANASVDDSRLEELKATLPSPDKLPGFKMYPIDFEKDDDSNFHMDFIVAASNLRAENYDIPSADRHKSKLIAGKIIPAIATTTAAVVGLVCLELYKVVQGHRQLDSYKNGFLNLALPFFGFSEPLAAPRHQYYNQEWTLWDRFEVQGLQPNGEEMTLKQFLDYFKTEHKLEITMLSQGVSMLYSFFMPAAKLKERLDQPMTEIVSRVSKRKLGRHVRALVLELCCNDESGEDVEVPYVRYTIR
UniProt Q92598: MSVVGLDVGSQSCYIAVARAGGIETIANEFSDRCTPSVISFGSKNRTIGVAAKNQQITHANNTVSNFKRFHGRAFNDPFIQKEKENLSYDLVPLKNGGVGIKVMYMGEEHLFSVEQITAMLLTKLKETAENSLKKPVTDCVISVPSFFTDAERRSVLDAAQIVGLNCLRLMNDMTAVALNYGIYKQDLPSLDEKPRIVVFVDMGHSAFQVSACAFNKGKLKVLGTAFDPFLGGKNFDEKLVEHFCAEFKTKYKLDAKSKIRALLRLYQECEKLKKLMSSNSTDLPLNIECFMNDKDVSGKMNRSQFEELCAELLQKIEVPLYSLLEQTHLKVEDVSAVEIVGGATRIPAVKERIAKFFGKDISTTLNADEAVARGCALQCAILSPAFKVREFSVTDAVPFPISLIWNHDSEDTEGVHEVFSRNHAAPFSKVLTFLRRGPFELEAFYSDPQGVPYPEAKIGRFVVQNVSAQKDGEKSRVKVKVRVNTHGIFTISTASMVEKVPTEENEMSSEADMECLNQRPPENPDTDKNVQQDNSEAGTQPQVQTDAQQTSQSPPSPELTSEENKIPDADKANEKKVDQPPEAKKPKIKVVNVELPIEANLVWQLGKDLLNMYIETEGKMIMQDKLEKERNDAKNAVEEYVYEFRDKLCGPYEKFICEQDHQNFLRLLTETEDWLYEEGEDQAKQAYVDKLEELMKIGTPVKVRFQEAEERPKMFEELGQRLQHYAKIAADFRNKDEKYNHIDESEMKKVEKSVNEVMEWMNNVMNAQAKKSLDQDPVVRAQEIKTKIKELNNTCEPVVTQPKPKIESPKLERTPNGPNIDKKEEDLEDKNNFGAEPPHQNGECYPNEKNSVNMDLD

B1: nucleoporin Nup107 (protein, UniProt P57740 1-925)
chain: MDRSGFGEISSPVIREAEVTRTARKQSAQKRVLLQASQDENFGNTTPRNQVIPRTPSSFRQPFTPTSRSLLRQPDISCILGTGGKSPRLTQSSGFFGNLSMVTNLDDSNWAAAFSSQRSGLFTNTEPHSITEDVTISAVMLREDDPGEAASMSMFSDFLQSFLKHSSSTVFDLVEEYENICGSQVNILSKIVSRATPGLQKFSKTASMLWLLQQEMVTWRLLASLYRDRIQSALEEESVFAVTAVNASEKTVVEALFQRDSLVRQSQLVVDWLESIAKDEIGEFSDNIEFYAKSVYWENTLHTLKQRQLTSYVGSVRPLVTELDPDAPIRQKMPLDDLDREDEVRLLKYLFTLIRAGMTEEAQRLCKRCGQAWRAATLEGWKLYHDPNVNGGTELEPVEGNPYRRIWKISCWRMAEDELFNRYERAIYAALSGNLKQLLPVCDTWEDTVWAYFRVMVDSLVEQEIQTSVATLDETEELPREYLGANWTLEKVFEELQATDKKRVLEENQEHYHIVQKFLILGDIDGLMDEFSKWLSKSRNNLPGHLLRFMTHLILFFRTLGLQTKEEVSIEVLKTYIQLLIREKHTNLIAFYTCHLPQDLAVAQYALFLESVTEFEQRHHCLELAKEADLDVATITKTVVENIRKKDNGEFSHHDLAPALDTGTTEEDRLKIDVIDWLVFDPAQRAEALKQGNAIMRKFLASKKHEAAKEVFVKIPQDSIAEIYNQCEEQGMESPLPAEDDNAIREHLCIRAYLEAHETFNEWFKHMNSVPQKPALIPQPTFTEKVAHEHKEKKYEMDFGIWKGHLDALTADVKEKMYNVLLFVDGGWMVDVREDAKEDHERTHQMVLLRKLCLPMLCFLLHTILHSTGQYQECLQLADMVSSERHKLYLVFSKEELRKLLQKLRESSLMLLDQGLDPLGYEIQL
B2: SEPT9 (protein, UniProt Q9UHD8 1-586)
chain: MKKSYSGGTRTSSGRLRRLGDSSGPALKRSFEVEEVETPNSTPPRRVQTPLLRATVASSTQKFQDLGVKNSEPSARHVDSLSQRSPKASLRRVELSGPKAAEPVSRRTELSIDISSKQVENAGAIGPSRFGLKRAEVLGHKTPEPAPRRTEITIVKPQESAHRRMEPPASKVPEVPTAPATDAAPKRVEIQMPKPAEAPTAPSPAQTLENSEPAPVSQLQSRLEPKPQPPVAEATPRSQEATEAAPSCVGDMADTPRDAGLKQAPASRNEKAPVDFGYVGIDSILEQMRRKAMKQGFEFNIMVVGQSGLGKSTLINTLFKSKISRKSVQPTSEERIPKTIEIKSITHDIEEKGVRMKLTVIDTPGFGDHINNENCWQPIMKFINDQYEKYLQEEVNINRKKRIPDTRVHCCLYFIPATGHSLRPLDIEFMKRLSKVVNIVPVIAKADTLTLEERVHFKQRITADLLSNGIDVYPQKEFDEDSEDRLVNEKFREMIPFAVVGSDHEYQVNGKRILGRKTKWGTIEVENTTHCEFAYLRDLLIRTHMQNIKDITSSIHFEAYRVKRLNEGSSAMANGMEEKEPEAPEM

biological target: G3BP1 (human (endogenous in iPSC-derived motor neurons)) (UniProt Q13283); test: affinity purification with mass spectrometry

binding, binds:
UBA1 (from UniProt P22314 1-1058)
HSPH1 (from UniProt Q92598 1-858)
B1
B2
